PubChem BioAssay AID1224830, NIAID | 2016

Screen: 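Genes whose knock-down alters the TNF-alpha reporter response to LPS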 (primary screen)
Cells: human THP-1 monocytic leukaemia cells, TNF dual-luciferase reporter clone, PMA-differentiated to macrophage-like cells
Reagents: siRNA pool against human genes, 50 nM
Timing: LPS for 4 h, given about 3 days after siRNA transfection
Challenge: bacterial LPS (TLR4 ligand), 10 ng/ml
Detection: 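TNF firefly reporter luminescence divided by renilla, normalised to the plate median, then turned into a robust z-score for each replicate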
Reading the numbers: TNF reporter robust z-score: higher = stronger TNF reporter response to LPS
Hit rule: 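Each well counts as active if its z-score is over 2.8 or under -1.5; controls are left without a call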
The deposit covers about 18,000 reagents; this is an unselected part. Over the whole deposit, about 2,900 (16%) are marked active. 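Calls are made per well; low scores hint the gene aids the LPS response, high scores that it dampens it.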 A number with no mark means an inactive call. Repeated entries: four replicate wells of each siRNA pool.

After knock-down of ANKH [SID315458041], the record shows TNF reporter robust z-score 2.67. Knock-down of ANKH [SID315458041] came out at: TNF reporter robust z-score 4.34 (active). ANKH [SID315458041] gave TNF reporter robust z-score 3.2 (active). For ANKH [SID315458041], the entry reads TNF reporter robust z-score 4.56 (active). Knock-down of SCN2A [SID315451309] came out at: TNF reporter robust z-score -0.16. With knock-down of SCN2A [SID315451309] the results were TNF reporter robust z-score -0.62.

Silencing of SCN2A [SID315451309] resulted in: TNF reporter robust z-score 0.42. Knock-down of SCN2A [SID315451309] resulted in: TNF reporter robust z-score -1.13. Knock-down of SPNS1 [SID315460147] came out at: TNF reporter robust z-score 2.23. Silencing of SPNS1 [SID315460147] resulted in: TNF reporter robust z-score 0.44. After knock-down of SPNS1 [SID315460147] the results were TNF reporter robust z-score -0.19. SPNS1 [SID315460147] gave TNF reporter robust z-score -1.39.

Knock-down of LRRC46 [SID315460831] resulted in: TNF reporter robust z-score -1.57 (active). Silencing of LRRC46 [SID315460831] resulted in: TNF reporter robust z-score -1.29. For LRRC46 [SID315460831] the deposit lists TNF reporter robust z-score -1.17. Against LRRC46 [SID315460831], the values are TNF reporter robust z-score -1.59 (active). With knock-down of N4BP2L1 [SID315460846] the results were TNF reporter robust z-score -0.56. N4BP2L1 [SID315460846] gave TNF reporter robust z-score 0.57.

For N4BP2L1 [SID315460846], the entry reads TNF reporter robust z-score -0.11. N4BP2L1 [SID315460846] gave TNF reporter robust z-score -0.44. Against VCF2 [SID315460855], the entry reads TNF reporter robust z-score -1.01. With knock-down of VCF2 [SID315460855], the record shows TNF reporter robust z-score -0.57. For VCF2 [SID315460855] the deposit lists TNF reporter robust z-score -0.75. Against VCF2 [SID315460855] the deposit lists TNF reporter robust z-score -0.67.

For FAM24A [SID315461450], the entry reads TNF reporter robust z-score -0.85. With knock-down of FAM24A [SID315461450], the record shows TNF reporter robust z-score 0.27. FAM24A [SID315461450] showed TNF reporter robust z-score -0.02. Against FAM24A [SID315461450], the entry reads TNF reporter robust z-score 0.5. Depletion of FAM170A [SID315464063] gave: TNF reporter robust z-score 0.98. Silencing of FAM170A [SID315464063] gave: TNF reporter robust z-score 0.12.

Silencing of FAM170A [SID315464063] resulted in: TNF reporter robust z-score 0.07. FAM170A [SID315464063] scored TNF reporter robust z-score 0.04. Against AK8 [SID315462647], the entry reads TNF reporter robust z-score 0.85. Knock-down of AK8 [SID315462647] resulted in: TNF reporter robust z-score 2.43. AK8 [SID315462647] scored TNF reporter robust z-score 0.4. AK8 [SID315462647] scored TNF reporter robust z-score -0.15.

After knock-down of RIT1 [SID315451135], the screen gave TNF reporter robust z-score 0.01. RIT1 [SID315451135] gave TNF reporter robust z-score 1.55. After knock-down of RIT1 [SID315451135] the results were TNF reporter robust z-score 0.57. RIT1 [SID315451135] showed TNF reporter robust z-score 0.89. KIDINS220 [SID315458420] scored TNF reporter robust z-score -0.78. Against KIDINS220 [SID315458420], the values are TNF reporter robust z-score -1.33.

With knock-down of KIDINS220 [SID315458420], the screen gave TNF reporter robust z-score -0.97. For KIDINS220 [SID315458420], the values are TNF reporter robust z-score -0.79. Against LGALS2 [SID315449754], the values are TNF reporter robust z-score -1.08. Silencing of LGALS2 [SID315449754] gave: TNF reporter robust z-score -0.68. Silencing of LGALS2 [SID315449754] came out at: TNF reporter robust z-score -0.91. Depletion of LGALS2 [SID315449754] resulted in: TNF reporter robust z-score -0.64.
